Data: the supplement of paper PMC8728848
The list shows a part of the results.

Assays:
Test in all cases: glycan array binding signal (z-score within array); higher = stronger binding
Settings in all cases: glycan notation: IUPAC condensed, linker removed
[1] = target: Gal3S(b1-3)[Fuc(a1-4)]GlcNAc
In short: (§1)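 Negative Z-scores can be read as non-binding. The Z-score is calculated within each array and then averaged across arrays of one protein sequence at different concentrations or buffers and across linkers. Arrays, 3228 in all, were curated from the Consortium for Functional Glycomics database and kept only where the protein sequence was available.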

[2] = target: Gal3S(b1-4)Glc
In short: as §1

[3] = target: Gal3S(b1-4)Glc6S
In short: as §1

[4] = target: Gal3S(b1-4)GlcNAc
In short: as §1

[5] = target: Gal3S(b1-4)[Fuc(a1-3)]Glc6S
In short: as §1

[6] = target: Gal3S(b1-4)[Fuc(a1-3)]GlcNAc
In short: as §1

[7] = target: Gal3S(b1-4)[Fuc(a1-3)]GlcNAc6S
In short: as §1

[8] = target: Gal3S4S(b1-4)GlcNAc
In short: as §1

[9] = target: Gal3S6S(b1-4)GlcNAc
In short: as §1

[10] = target: Gal3S6S(b1-4)GlcNAc6S
In short: as §1

[11] = target: Gal4S(b1-4)GlcNAc
In short: as §1

[12] = target: Gal4S6S(b1-4)GlcNAc
In short: as §1

[13] = target: Gal6P(b1-4)GlcNAc
In short: as §1

[14] = target: Gal6S(b1-3)GlcNAc
In short: as §1

[15] = target: Gal6S(b1-3)GlcNAc6S
In short: as §1

[16] = target: Gal6S(b1-4)Glc
In short: as §1

[17] = target: Gal6S(b1-4)Glc6S
In short: as §1

[18] = target: Gal6S(b1-4)GlcNAc
In short: as §1

[19] = target: Gal6S(b1-4)GlcNAc6S
In short: as §1

[20] = target: GalNAc(a1-3)Gal
In short: as §1

[21] = target: GalNAc(a1-3)GalNAc
In short: as §1

[22] = target: GalNAc(a1-3)GalNAc(b1-3)Gal(a1-4)Gal(b1-4)Glc
In short: as §1

[23] = target: GalNAc(a1-3)GalNAc(b1-3)Gal(a1-4)Gal(b1-4)GlcNAc
In short: as §1

[24] = target: GalNAc(b1-3)Gal
In short: as §1

[25] = target: GalNAc(b1-3)Gal(a1-4)Gal(b1-4)GlcNAc
In short: as §1

[26] = target: GalNAc(b1-3)Gal(a1-4)Gal(b1-4)GlcNAc(b1-3)Gal(b1-4)Glc
In short: as §1

[27] = target: GalNAc(b1-3)Gal(a1-6)Gal(b1-4)Glc
In short: as §1

[28] = target: GalNAc(b1-3)GalNAc
In short: as §1

[29] = target: GalNAc(b1-3)GlcNAc
In short: as §1

[30] = target: GalNAc(b1-4)Gal(b1-4)Glc
In short: as §1

[31] = target: GalNAc(b1-4)GlcNAc
In short: as §1

[32] = target: GalNAc(b1-4)GlcNAc(b1-2)Man
In short: as §1

[33] = target: GalNAc(b1-4)GlcNAc(b1-2)Man(a1-3)[GalNAc(b1-4)GlcNAc(b1-2)Man(a1-6)]Man(b1-4)GlcNAc(b1-4)GlcNAc
In short: as §1

[34] = target: GalNAc(b1-4)GlcNAc(b1-3)GalNAc(b1-4)GlcNAc
In short: as §1

[35] = target: GalNAc(b1-4)GlcNAc6S
In short: as §1

[36] = target: GalNAc(b1-6)GalNAc
In short: as §1

[37] = target: GalNAc3S(b1-4)GlcNAc
In short: as §1

B1: AT3G09350(27) (Arabidopsis thaliana), Q84J81 (protein)
chain: MAKDGPNWDGLLKWSLSHADGTRPTRQLSEEDRKWFMEAMQSQTVDVVKRMKEITLVMQTPEQVLVEHGVTPEDIQDLLDELQEHVESIDMANDLHSIGGLVPLLSFLKNSHANIRAKAADVVSTIVQNNPRSQELVMETNALESLLSNFTSDTDIHARTQALGAISSLIRHNKPGVTAFKLANGYAGLRDALASDSVRFQRKALNLLQYLLQEDDSDRSIATGLGFPRVMMHLASSDDAEIREAALRGLLELSREKNDGSSSIDKSDEKLRQLLEERIKGITLMSQEDLETVKEERQLVDLLWSICYNEPSSLREKGLVVLPGEDALPPDVASKLFEPPLRASAANRNATEKKDEPMKLLGP
- glycan array binding signal (z-score) [1]: -0.345
- glycan array binding signal (z-score) [2]: 0.776
- glycan array binding signal (z-score) [3]: -0.31
- glycan array binding signal (z-score) [4]: 0.143
- glycan array binding signal (z-score) [5]: -0.174
- glycan array binding signal (z-score) [6]: 0.214
- glycan array binding signal (z-score) [7]: 0.294
- glycan array binding signal (z-score) [8]: -0.927
- glycan array binding signal (z-score) [9]: 1
- glycan array binding signal (z-score) [10]: 1.74
- glycan array binding signal (z-score) [11]: -0.27
- glycan array binding signal (z-score) [12]: -0.065
- glycan array binding signal (z-score) [13]: -0.424
- glycan array binding signal (z-score) [14]: -0.146
- glycan array binding signal (z-score) [15]: -0.279
- glycan array binding signal (z-score) [16]: -0.106
- glycan array binding signal (z-score) [17]: 0.228
- glycan array binding signal (z-score) [18]: -0.93
- glycan array binding signal (z-score) [19]: -0.56
- glycan array binding signal (z-score) [20]: -0.077
- glycan array binding signal (z-score) [21]: -0.182
- glycan array binding signal (z-score) [22]: -0.54
- glycan array binding signal (z-score) [23]: -0.307
- glycan array binding signal (z-score) [24]: 0.212
- glycan array binding signal (z-score) [25]: 4.3
- glycan array binding signal (z-score) [26]: 0.298
- glycan array binding signal (z-score) [27]: -0.349
- glycan array binding signal (z-score) [28]: -0.149
- glycan array binding signal (z-score) [29]: -0.629
- glycan array binding signal (z-score) [30]: 0.418
- glycan array binding signal (z-score) [31]: 7.59
- glycan array binding signal (z-score) [32]: -0.302
- glycan array binding signal (z-score) [33]: 0.202
- glycan array binding signal (z-score) [34]: -0.167
- glycan array binding signal (z-score) [35]: -0.93
- glycan array binding signal (z-score) [36]: -1.04
- glycan array binding signal (z-score) [37]: -0.149
